{"source": "patent US20250179023A1", "about": "“HOLOSYMMETRIC BIPHENYL DERIVATIVE, AND PREPARATION METHOD THEREFOR AND USE THEREOF” (Abbisko Therapeutics Co., Ltd., priority 2022, published 2025)", "test": "in vitro", "conditions": "human, Caco-2, pH 7.4"}
{"smiles": "CC(C)NCC(O)COc1ccc(CC(N)=O)cc1", "note": "(centres unmarked) [Atenolol, atenolol]", "values": [{"measurement": "Papp A→B at 90 min, 10 μM", "value": 0.42, "unit": "×10⁻⁶ cm/s"}, {"measurement": "Papp B→A at 90 min, 10 μM", "value": 0.57, "unit": "×10⁻⁶ cm/s"}]}
